In all, about 320,000 compounds went through this assay and about 22,000 (6.9%) were called active. Inconclusive results, whose numbers are uncertain, are shown with a selection of clear calls. Calls follow the shape of the dose curve; as a rule, active = well fitted inhibition curve with a large enough effect; inconclusive = small, poorly fitted or top-dose-only effect, or another doubt; inactive = no such curve, though single readings can be large or run the other way. Potencies of inconclusive entries are doubtful fits and often do not repeat.
Experiment: Primary qHTS for delayed death inhibitors of the malarial parasite plastid, 96 hour incubation
Conditions: P. falciparum luciferase reporter growth; series mostly up to 28.7 µM; activity change, negative = inhibition: at the top concentration
In short: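 Cell-based qHTS: luciferase-tagged P. falciparum in erythrocytes (2% hematocrit, 0.05% parasitemia final) incubated with compounds for 96 hours, 37 C, 5% CO2; luciferase detection reagent then added and luminescence measured.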
% is scaled to controls: 0 for no effect and ±100 for the full control effect; potency is read from the fitted curve at half-maximal effect.

| SMILES | Potency | activity change, negative = inhibition |
| --- | --- | --- |
| Cc1ccc(S(=O)(=O)N2CCOCC2)cc1NC(=O)COc1cccc(Oc2ccccc2)c1 | inconclusive: 18.5 µM [inhibitor, single point] |  |
| CC(C)(C)c1ccc(C(=O)NC(=S)NNC(=O)c2cccs2)cc1 | inconclusive: 14.7 µM [inhibitor, single point] |  |
| COc1ccc(-n2nc(C(=O)NCC(=O)N3CCOCC3)c3ccccc3c2=O)c(OC)c1 |  | inactive: -2.49% |
| NC(=NCc1ccco1)NC(=O)c1ccc(Cl)cc1 |  | inactive: 3.32% |
| O=C(CC(C(=O)O)P(=O)(c1ccccc1)c1ccccc1)c1ccc(Br)cc1 (stereo unspecified) |  | inactive: 8.23% |
| O=c1c2ccccc2c(C=NC2CCN(Cc3ccccc3)CC2)c(O)n1Cc1ccc2c(c1)OCO2 | inconclusive: 3.7 µM [inhibitor, full curve] |  |
| CC(=O)Nc1ccc2c(c1)nc1n2CCN(C2CCCCC2)C1 |  | inactive: 42.4% |
| Cc1ccccc1CN1CCN(c2ccc(S(=O)(=O)N3CCCC3)cn2)CC1 | inconclusive: 11.7 µM [inhibitor, single point] |  |
| Cc1cccc(C(=O)OC(C)C(=O)Nc2ccc(S(=O)(=O)N3CCCC3)cc2)c1O (stereo unspecified) | inconclusive: 11.7 µM [inhibitor, single point] |  |
| CCC(C)[C@H](NC(=O)C1(c2ccccc2)CCN(C(=O)OC(C)(C)C)CC1)C(=O)N[C@@H](C(=O)O)c1ccccc1 (stereo partly specified) | active: 13.1 µM |  |
| CCC(=Nc1ccc(OC)cc1OC)c1c(O)n(C)c(=O)n(C)c1=O |  | inactive: -7.82% [at 5.75 µM] |
| Nc1ccc(-c2nc3ccc(N)cc3o2)cc1 |  | inactive: 81.8% |
| CCOc1ccc(NC(=O)c2ccco2)cc1S(=O)(=O)N1CCCC1 | inconclusive: 18.5 µM [inhibitor, single point] |  |
| COC(=O)c1ccc(CSc2ncnc3ccccc23)o1 | inconclusive: 18.5 µM [inhibitor, single point] |  |
| CCOC(=O)c1ccc2ncc(C(=O)OCC)c(NCc3ccco3)c2c1 | active: 1.65 µM |  |
| CCn1c(SC(C)C)nnc1-c1c[nH]c2ccccc12 | inconclusive: 14.7 µM [inhibitor, single point] |  |
| O=C(CNc1ccccc1OC(F)F)N1CCc2ccccc21 |  | inactive: 0.758% |
| COc1cc(C=O)ccc1OCC(=O)Nc1ccccc1N1CCOCC1 | inconclusive: 18.5 µM [inhibitor, single point] |  |
| COc1ccc2c(c1)c(C(=O)N/N=C/c1ccc(Br)cc1)c(C)n2C | inconclusive: 7.38 µM [inhibitor, partial curve, poor fit] |  |
| CCCC(=O)Nc1ccc(N2CCN(C(=O)c3ccccc3C)CC2)cc1 | inconclusive: 2.33 µM [inhibitor, partial curve] |  |
| CCCCNC(=O)COCc1cc(-c2ccc3c(c2)OCO3)on1 | inconclusive: 13.1 µM [inhibitor, partial curve] |  |
| Cc1ccc(S(=O)(=O)c2c(C(=O)c3ccccc3)cnc3cc4c(cc23)OCCO4)cc1 | inconclusive: 18.5 µM [inhibitor, single point] |  |
| O=C1C=C(NC(=O)Nc2ccc(Cl)c(Cl)c2)CCC1 | inconclusive: 10.4 µM [inhibitor, single point] |  |
| CCOc1ccc(OCc2cccc(C(=O)Nc3ccc(CN4CCCCC4)cc3)c2)cc1 | inconclusive: 1.85 µM [inhibitor, full curve, poor fit] |  |

| SMILES | Potency | activity change, negative = inhibition |
| --- | --- | --- |
| Cc1nn(C)cc1CN(C)Cc1ccc(OCC(O)CN2CCCCC2)cc1 (stereo unspecified) | inconclusive: 11.7 µM [inhibitor, single point] |  |
| O=C(Cn1cncn1)N1CCN(c2ccc(F)cc2)CC1 |  | inactive: 1.02% |
| Cc1ccc(S(=O)(=O)N2CCOCC2)cc1NC(=O)c1cc([N+](=O)[O-])ccc1N1CCOCC1 |  | inactive: 12.4% |
| CC(=O)c1cccc(S(=O)(=O)N2CCC(C(=O)N(C)Cc3ccc(Cl)s3)CC2)c1 | inconclusive: 18.5 µM [inhibitor, partial curve, poor fit] |  |
| CC(=O)c1cccc(NC(=O)/C(=C/c2ccncc2)NC(=O)c2ccccc2)c1 |  | inactive: -17.4% |
| CC(=O)Nc1ccc(S(=O)(=O)Nc2ccc([N+](=O)[O-])cc2)cc1 |  | inactive: -9.28% |
| CC(/C=N\NC(=O)c1ccc(C)nc1)=C\c1ccccc1 | inconclusive: 5.86 µM [inhibitor, partial curve] |  |
| Cc1ccc(C(=O)C=CNNC(=O)c2ccccc2)cc1 | inconclusive: 16.5 µM [inhibitor, single point] |  |
| COC(=O)C1=C(c2cccc(C#N)c2)C[C@@H]2CC[C@H]1N2C(=O)N1CCC(O)CC1 | inconclusive: 16.5 µM [inhibitor, single point] |  |
| O=C(CSc1nc(-c2ccccc2)cs1)Nc1cccc([N+](=O)[O-])c1 | active: 10.4 µM |  |
| CCC(NC(=O)c1cc(COc2cncc(Cl)c2)on1)c1ccc(C)cc1 (stereo unspecified) | active: 5.22 µM |  |
| CCc1c(C(=O)NC(C)C2CCCO2)csc1C (stereo unspecified) |  | inactive: -24.9% |
| O=C(C1=C[C@@H](c2ccc3c(c2)OCO3)C[C@@H](OCc2ccc(CO)cc2)O1)N1CCOCC1 | inconclusive: 14.7 µM [inhibitor, partial curve, poor fit] |  |
| CS(=O)(=O)N1CCCC(C(=O)NCc2ccco2)C1 (stereo unspecified) | inconclusive: 18.5 µM [inhibitor, single point] |  |
| COC(=O)CC1=NN(c2ccc(OC)cc2)C(=O)C1 | inconclusive: 9.28 µM [inhibitor, partial curve, poor fit] |  |
| O=C(CCNC(=O)c1ccc(Cl)cc1)Nc1cccc(S(=O)(=O)N2CCCCC2)c1 | inconclusive: 18.5 µM [inhibitor, single point] |  |
| CN=C1S/C(=C\c2c(OC)cc(OC)cc2OC)C(=O)N1C |  | inactive: 14.8% |
| O=C(O)COCC(=O)Nc1ccc(OCCc2ccccc2)cc1 |  | inactive: 16.9% |
| CCOC(=O)C1CCN(CC(O)COc2ccc(C(C)(C)C)cc2)CC1 (stereo unspecified) | inconclusive: 18.5 µM [inhibitor, single point] |  |
| O=[N+]([O-])c1cccnc1N1CCN(Cc2ccc3c(c2)OCO3)CC1 | inconclusive: 13.1 µM [inhibitor, partial curve, poor fit] |  |
| Cc1ccccc1OCC(=O)NNC(=O)C1CCN(c2ncnc3sc(C)c(C)c23)CC1 | inconclusive: 9.28 µM [inhibitor, partial curve, poor fit] |  |
| O=C(CN1C(=O)NC2(CCc3ccccc32)C1=O)Nc1cc(C(F)(F)F)ccc1N1CCOCC1 (stereo unspecified) | inconclusive: 3.29 µM [inhibitor, full curve, poor fit] |  |
| CCN1C(=O)C(=Cc2ccc(N3CCOCC3)o2)C(=O)N(CC)C1=S |  | inactive: 0% |
| O=S(=O)(Nc1cccnc1)c1ccccc1 |  | inactive: 31% |

A stretch of the results above, as a working copy:

| SMILES | Potency | activity change, negative = inhibition |
| --- | --- | --- |
| CCOc1ccc(OCc2cccc(C(=O)Nc3ccc(CN4CCCCC4)cc3)c2)cc1 | inconclusive: 1.85 µM [inhibitor, full curve, poor fit] |  |
| Cc1nn(C)cc1CN(C)Cc1ccc(OCC(O)CN2CCCCC2)cc1 (stereo unspecified) | inconclusive: 11.7 µM [inhibitor, single point] |  |

More results follow.

| SMILES | Potency | activity change, negative = inhibition |
| --- | --- | --- |
| CC(C)NC(=O)CN1CCC(c2ccccc2)C(O)C1 (stereo unspecified) |  | inactive: 2.76% |
| Cc1ccc(-c2nc(NCC3CCCO3)sc2C)cc1 (stereo unspecified) | inconclusive: 18.5 µM [inhibitor, single point] |  |
| CCCNC(=O)c1nc(C)n(-c2ccc([N+](=O)[O-])cc2)n1 |  | inactive: 3.64% |
| O=C1CC(C(=O)N2CCN(c3ccccc3Cl)CC2)CN1Cc1ccccc1 (stereo unspecified) | inconclusive: 0.657 µM [inhibitor, full curve, poor fit] |  |
| Cc1ccnc(NC(=S)NC(=O)c2cccs2)c1 | inconclusive: 0.233 µM [inhibitor, partial curve, poor fit] |  |
| COc1ccc(CN2CCN(Cc3ccccc3C(F)(F)F)CC2)c(OC)c1 |  | inactive: -0.667% |
| CCSc1ccccc1C(=O)Nc1nncs1 | inconclusive: 10.4 µM [inhibitor, single point] |  |
| COC(=O)c1cc(S(=O)(=O)N2CCN(C3CCCCC3)CC2)c[nH]1 |  | inactive: 27.5% |
| COC(=O)C1=C(C)N(C)C(=S)NC1c1c(OC)ccc2ccccc12 (stereo unspecified) | inconclusive: 2.08 µM [inhibitor, full curve, poor fit] |  |
| O=S(=O)(c1ccc(NC2CCCc3ccccc32)nc1)N1CCOCC1 (stereo unspecified) | inconclusive: 13.1 µM [inhibitor, single point] |  |
| CC1CCN(CCC(=O)Nc2ccc(F)c(F)c2)CC1 |  | inactive: 0% |
| O=C(OCC1CCCN2CCCCC12)c1ccc2c(c1)OCO2 (stereo unspecified) |  | inactive: 48.6% |
| COc1cccc(C(=O)c2cc3cc(Cl)ccc3[nH]2)c1 | inconclusive: 16.5 µM [inhibitor, single point] |  |
| CC(CCc1ccccc1)NC(=O)CCC(=O)N1CCC(C(=O)O)CC1 (stereo unspecified) |  | inactive: -16.9% |
| COC(=O)c1c(NC(=O)CN2C(=O)NC(CCc3ccccc3)C2=O)sc2c1CCCCC2 (stereo unspecified) | inconclusive: 18.5 µM [inhibitor, single point] |  |
| CC(C)CC1NC(=O)N(Cc2cc(=O)n3ccsc3n2)C1=O (stereo unspecified) | inconclusive: 0.37 µM [inhibitor, full curve, poor fit] |  |
| COc1cccc(N(CC(=O)N2CCOCC2)S(C)(=O)=O)c1 | inconclusive: 13.1 µM [inhibitor, partial curve, poor fit] |  |
| COc1ccc(C(CC(=O)c2ccccc2)CC(=O)c2ccccc2)cc1 | inconclusive: 8.28 µM [inhibitor, single point] |  |
| CC(=O)N1N=C(c2ccc3nccnc3c2)CC1c1ccccc1 (stereo unspecified) |  | inactive: -8.2% |
| COc1ccccc1C1OC2=C(Nc3ccc([N+](=O)[O-])cc3N2)C1=O (stereo unspecified) | inconclusive: 10.4 µM [inhibitor, single point] |  |
| C=CCn1c(SCn2nnc3ccccc3c2=O)nnc1C1CCCCC1 | inconclusive: 16.5 µM [inhibitor, single point] |  |
| COc1ccc(C(=O)N[C@H](C(=O)NCC2CCCCC2)C(C)C)cc1 | inconclusive: 18.5 µM [inhibitor, single point] |  |
| CCCCNc1nc(NC)nc(Cl)c1SC | inconclusive: 4.15 µM [inhibitor, single point] |  |

From PubChem BioAssay AID504834 (National Center for Advancing Translational Sciences (NCATS), 2011)
